Consider 57 targets from the supplement of paper PMC6411743.

Sequences of proteins named here, by UniProt entry; tags and fusion partners are left off. A change or cut given only in a name is not applied to a line headed by its entry.
UniProt Q13884: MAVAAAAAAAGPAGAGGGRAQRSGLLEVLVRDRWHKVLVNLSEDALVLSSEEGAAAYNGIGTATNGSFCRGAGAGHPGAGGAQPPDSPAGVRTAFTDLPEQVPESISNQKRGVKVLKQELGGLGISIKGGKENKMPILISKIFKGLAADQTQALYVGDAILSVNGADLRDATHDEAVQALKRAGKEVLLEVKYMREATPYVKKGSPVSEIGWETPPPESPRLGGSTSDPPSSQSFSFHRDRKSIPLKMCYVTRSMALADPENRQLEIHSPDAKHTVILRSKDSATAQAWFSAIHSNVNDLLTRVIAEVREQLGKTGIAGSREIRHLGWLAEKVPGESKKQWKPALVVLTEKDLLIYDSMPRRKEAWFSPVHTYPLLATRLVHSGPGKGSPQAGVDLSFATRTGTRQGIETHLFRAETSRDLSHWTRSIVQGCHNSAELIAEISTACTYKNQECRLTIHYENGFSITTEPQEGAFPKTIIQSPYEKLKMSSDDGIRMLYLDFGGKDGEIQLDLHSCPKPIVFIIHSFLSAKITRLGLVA
UniProt Q02535: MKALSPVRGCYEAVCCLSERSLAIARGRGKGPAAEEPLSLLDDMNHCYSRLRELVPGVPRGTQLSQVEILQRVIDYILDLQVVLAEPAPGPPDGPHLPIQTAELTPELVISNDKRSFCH
UniProt Q14088: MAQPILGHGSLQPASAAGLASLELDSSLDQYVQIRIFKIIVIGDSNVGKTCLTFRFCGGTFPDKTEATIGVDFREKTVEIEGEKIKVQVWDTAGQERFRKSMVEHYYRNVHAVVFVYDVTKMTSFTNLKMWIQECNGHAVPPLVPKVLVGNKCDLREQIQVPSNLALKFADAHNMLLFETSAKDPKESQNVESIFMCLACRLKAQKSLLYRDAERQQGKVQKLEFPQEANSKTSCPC
UniProt Q13151: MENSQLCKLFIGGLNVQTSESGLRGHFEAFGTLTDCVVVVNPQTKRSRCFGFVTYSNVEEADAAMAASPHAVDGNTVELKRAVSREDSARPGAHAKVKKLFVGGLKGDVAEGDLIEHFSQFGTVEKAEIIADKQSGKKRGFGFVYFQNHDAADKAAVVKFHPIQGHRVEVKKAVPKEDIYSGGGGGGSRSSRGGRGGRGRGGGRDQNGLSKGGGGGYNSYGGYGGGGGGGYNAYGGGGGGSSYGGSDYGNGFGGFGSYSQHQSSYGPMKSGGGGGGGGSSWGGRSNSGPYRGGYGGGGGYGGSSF
UniProt Q13362, whole entry, looked up: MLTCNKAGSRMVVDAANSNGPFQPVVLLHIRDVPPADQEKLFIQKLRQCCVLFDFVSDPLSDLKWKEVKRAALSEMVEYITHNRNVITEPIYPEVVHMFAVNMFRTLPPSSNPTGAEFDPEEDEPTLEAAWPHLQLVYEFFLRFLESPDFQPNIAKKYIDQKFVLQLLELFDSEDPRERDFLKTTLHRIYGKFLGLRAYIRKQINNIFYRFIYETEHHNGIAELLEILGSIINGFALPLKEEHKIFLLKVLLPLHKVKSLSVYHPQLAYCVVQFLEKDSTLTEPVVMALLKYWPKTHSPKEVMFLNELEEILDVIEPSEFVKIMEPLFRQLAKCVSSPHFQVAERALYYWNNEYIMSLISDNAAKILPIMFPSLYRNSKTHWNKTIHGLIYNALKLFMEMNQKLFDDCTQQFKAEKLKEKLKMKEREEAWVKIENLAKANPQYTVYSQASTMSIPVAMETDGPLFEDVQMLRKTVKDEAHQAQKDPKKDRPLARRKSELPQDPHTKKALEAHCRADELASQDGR
UniProt Q13464: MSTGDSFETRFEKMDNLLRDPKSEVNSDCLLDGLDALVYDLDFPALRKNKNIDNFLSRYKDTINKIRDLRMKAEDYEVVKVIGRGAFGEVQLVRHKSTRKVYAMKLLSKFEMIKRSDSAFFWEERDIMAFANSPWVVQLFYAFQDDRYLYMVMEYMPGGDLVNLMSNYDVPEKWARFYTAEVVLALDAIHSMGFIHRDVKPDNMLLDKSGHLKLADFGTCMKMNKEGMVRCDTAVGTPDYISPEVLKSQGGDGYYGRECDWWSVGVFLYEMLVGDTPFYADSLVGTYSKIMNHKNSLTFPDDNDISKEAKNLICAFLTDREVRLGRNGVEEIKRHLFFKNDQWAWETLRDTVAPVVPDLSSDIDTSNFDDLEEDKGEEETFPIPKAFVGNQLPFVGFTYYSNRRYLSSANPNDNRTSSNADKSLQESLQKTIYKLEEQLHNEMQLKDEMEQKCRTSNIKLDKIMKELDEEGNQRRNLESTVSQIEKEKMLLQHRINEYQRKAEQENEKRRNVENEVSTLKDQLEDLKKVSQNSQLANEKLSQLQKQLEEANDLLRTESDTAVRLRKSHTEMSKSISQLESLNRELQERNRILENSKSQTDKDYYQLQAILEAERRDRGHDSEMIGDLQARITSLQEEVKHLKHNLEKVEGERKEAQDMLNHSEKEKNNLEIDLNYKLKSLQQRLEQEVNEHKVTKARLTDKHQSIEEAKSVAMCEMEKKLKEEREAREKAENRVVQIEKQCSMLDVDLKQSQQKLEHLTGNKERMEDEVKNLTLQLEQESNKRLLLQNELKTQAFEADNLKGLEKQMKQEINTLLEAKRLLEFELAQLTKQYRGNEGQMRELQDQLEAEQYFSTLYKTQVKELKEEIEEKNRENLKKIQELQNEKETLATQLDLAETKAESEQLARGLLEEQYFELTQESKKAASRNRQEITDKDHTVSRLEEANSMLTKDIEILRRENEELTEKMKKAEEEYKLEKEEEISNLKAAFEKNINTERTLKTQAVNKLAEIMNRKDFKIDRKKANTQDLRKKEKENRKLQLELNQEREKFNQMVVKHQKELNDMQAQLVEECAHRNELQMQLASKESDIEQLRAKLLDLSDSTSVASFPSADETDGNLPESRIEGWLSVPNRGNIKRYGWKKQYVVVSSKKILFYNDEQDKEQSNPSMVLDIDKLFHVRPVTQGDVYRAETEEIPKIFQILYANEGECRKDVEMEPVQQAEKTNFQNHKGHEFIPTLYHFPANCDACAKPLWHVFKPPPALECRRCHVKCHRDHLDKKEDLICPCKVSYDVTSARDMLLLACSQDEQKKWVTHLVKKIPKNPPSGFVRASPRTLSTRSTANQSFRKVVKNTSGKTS
UniProt Q13442: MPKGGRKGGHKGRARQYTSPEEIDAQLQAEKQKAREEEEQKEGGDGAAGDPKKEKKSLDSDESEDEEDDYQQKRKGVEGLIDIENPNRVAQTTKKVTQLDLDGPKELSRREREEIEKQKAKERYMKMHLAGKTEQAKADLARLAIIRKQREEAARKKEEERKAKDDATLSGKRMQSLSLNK
UniProt Q13188: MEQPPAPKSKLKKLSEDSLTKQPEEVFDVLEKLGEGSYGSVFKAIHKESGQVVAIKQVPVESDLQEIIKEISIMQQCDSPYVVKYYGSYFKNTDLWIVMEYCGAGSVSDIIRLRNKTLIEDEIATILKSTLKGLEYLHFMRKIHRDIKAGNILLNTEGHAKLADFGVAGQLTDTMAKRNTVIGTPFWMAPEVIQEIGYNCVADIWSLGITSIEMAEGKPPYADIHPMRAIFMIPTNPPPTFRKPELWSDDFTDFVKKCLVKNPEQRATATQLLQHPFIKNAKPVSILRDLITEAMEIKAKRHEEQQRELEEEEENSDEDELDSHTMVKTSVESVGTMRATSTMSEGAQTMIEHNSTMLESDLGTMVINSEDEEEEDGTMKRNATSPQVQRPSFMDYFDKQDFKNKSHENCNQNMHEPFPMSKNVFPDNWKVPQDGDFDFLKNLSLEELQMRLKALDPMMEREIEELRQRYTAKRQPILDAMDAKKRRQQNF
UniProt Q12882: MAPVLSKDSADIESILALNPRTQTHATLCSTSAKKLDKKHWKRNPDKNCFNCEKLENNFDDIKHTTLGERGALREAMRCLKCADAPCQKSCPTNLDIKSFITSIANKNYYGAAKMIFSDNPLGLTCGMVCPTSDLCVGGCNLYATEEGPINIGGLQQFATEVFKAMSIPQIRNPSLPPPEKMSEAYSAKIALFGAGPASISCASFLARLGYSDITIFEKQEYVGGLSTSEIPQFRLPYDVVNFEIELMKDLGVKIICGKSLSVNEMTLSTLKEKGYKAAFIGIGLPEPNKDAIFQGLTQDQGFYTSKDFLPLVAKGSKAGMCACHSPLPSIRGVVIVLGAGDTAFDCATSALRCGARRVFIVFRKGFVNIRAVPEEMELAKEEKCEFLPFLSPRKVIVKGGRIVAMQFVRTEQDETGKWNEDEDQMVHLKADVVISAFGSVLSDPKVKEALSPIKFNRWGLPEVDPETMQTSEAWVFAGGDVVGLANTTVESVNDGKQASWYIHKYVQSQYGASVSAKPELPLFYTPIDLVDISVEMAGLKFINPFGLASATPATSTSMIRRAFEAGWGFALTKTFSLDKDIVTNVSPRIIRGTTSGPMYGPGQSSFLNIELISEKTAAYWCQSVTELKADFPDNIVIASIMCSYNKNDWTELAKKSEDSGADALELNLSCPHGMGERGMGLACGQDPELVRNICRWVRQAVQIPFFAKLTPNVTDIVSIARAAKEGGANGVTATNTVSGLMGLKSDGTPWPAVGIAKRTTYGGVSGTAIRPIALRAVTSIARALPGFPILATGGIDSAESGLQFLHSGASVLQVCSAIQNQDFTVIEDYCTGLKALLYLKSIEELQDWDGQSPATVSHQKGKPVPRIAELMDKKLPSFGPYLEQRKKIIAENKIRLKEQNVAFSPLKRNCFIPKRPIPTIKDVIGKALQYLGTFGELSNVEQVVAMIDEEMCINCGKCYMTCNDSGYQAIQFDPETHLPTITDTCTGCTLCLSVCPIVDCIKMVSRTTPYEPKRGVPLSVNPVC
UniProt Q00796: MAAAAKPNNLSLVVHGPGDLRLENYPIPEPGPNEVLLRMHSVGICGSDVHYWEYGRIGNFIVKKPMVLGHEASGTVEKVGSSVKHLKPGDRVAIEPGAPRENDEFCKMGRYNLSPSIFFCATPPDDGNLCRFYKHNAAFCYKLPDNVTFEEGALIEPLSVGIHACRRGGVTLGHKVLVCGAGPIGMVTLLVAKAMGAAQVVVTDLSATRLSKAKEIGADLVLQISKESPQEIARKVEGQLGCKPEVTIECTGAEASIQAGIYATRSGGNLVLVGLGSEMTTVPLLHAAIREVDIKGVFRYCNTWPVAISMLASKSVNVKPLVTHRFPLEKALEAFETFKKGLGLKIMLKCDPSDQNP
UniProt Q08623: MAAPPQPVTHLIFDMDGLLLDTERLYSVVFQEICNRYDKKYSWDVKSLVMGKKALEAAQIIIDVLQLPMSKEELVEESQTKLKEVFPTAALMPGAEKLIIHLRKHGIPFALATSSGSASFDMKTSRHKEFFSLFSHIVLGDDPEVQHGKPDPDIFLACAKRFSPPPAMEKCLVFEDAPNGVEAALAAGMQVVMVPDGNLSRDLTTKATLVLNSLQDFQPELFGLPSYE
UniProt Q13630: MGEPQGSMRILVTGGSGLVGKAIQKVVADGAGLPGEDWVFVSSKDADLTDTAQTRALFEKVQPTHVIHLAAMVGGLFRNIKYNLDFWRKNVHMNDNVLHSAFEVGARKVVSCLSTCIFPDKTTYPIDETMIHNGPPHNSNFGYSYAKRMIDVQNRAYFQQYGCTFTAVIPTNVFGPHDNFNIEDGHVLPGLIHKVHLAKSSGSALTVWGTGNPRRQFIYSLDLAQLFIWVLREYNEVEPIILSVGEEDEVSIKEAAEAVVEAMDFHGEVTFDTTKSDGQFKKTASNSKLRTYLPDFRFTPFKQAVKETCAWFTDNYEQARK
UniProt Q02083: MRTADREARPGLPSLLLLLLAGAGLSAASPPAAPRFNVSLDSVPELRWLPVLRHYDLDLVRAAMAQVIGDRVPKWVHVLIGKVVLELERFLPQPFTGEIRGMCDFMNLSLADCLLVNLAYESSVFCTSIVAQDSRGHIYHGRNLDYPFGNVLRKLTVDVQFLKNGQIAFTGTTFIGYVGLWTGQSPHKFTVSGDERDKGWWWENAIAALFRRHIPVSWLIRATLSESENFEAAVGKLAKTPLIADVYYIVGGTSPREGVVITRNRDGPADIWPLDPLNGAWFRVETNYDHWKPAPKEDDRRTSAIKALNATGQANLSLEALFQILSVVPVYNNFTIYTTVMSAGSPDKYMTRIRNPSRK
UniProt Q06265, whole entry: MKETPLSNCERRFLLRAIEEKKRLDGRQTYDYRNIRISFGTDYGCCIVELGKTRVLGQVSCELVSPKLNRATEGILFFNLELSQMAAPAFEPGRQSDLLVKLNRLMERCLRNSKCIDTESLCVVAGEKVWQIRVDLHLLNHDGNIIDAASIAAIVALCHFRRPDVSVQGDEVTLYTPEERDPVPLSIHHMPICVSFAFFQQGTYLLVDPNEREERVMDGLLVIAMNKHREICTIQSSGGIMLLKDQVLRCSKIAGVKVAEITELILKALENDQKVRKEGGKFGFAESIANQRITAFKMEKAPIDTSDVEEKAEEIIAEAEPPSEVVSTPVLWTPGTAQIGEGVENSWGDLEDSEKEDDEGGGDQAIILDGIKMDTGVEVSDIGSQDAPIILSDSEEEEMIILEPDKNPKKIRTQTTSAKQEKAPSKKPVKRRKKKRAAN

Compound in this assay: Nc1ncnc2c1ncn2[C@@H]1O[C@H](COP(=O)(O)OP(=O)(O)OP(=O)(O)O)[C@@H](O)[C@H]1O [adenosine triphosphate]
Briefly: NP40-soluble protein abundance relative to vehicle (solubility fold change) (ratio); higher = more soluble protein in presence of ATP. Put shortly: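 In three independent experiments, Jurkat crude lysate made by Dounce homogenisation was treated for 10 min at room temperature and then 3 min at 37 °C with eight concentrations ranging from 0.1 to 10 mM. It was then solubilised with 0.8% NP40 plus benzonase for 60 min at 4 °C and ultracentrifuged. The supernatant was TMT-labelled for LC-MS/MS, and each value is the fold change against the detergent-processed vehicle for the same replicate, using vsn-normalised intensities.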

± gives the standard deviation of the averaged measurements. The entries are a selection whose mix differs from that of the whole data set. Small differences around the control level are noise.

Take PFKP (UniProt Q01813): the NP40-soluble protein abundance reads like this: (concentration: 0.1mM) 1.04 ± 0.06; (concentration: 0.5mM) 1.04 ± 0.056.

For the target GRAP (UniProt Q13588), the NP40-soluble protein abundance is, setting by setting: (concentration: 0.1mM) 1.09 ± 0.068; (concentration: 0.5mM) 1.09 ± 0.13.

For the target UniProt Q13884 and related entries, the NP40-soluble protein abundance is, setting by setting: (concentration: 0.1mM) 0.999 ± 0.028; (concentration: 0.5mM) 1.02 ± 0.12.

Regarding UniProt Q13469 and related entries, the NP40-soluble protein abundance runs as follows: (concentration: 0.1mM) 1 ± 0.052; (concentration: 0.5mM) 1.03 ± 0.075.

Consider TARBP1 (UniProt Q13395), for which the NP40-soluble protein abundance (concentration: 0.1mM) was found to be 1.02 ± 0.019 and the NP40-soluble protein abundance (concentration: 0.5mM) was 1.001 ± 0.0096.

Regarding LMAN2 (UniProt Q12907), the NP40-soluble protein abundance is 1.05 ± 0.055 (concentration: 0.1mM) and 1.04 ± 0.036 (concentration: 0.5mM).

With GBE1 (UniProt Q04446), the NP40-soluble protein abundance (concentration: 0.1mM) came to 1.05 ± 0.074 and the NP40-soluble protein abundance (concentration: 0.5mM) worked out at 1.05 ± 0.052.

On to UniProt Q13308 and related entries, for which the NP40-soluble protein abundance was determined as 0.997 ± 0.042 (concentration: 0.1mM) and 0.9692 ± 0.0067 (concentration: 0.5mM).

Take UniProt Q02535: the NP40-soluble protein abundance was found to be 1.34 ± 0.25 (concentration: 0.1mM) and 0.89 ± 0.055 (concentration: 0.5mM).

In the case of EEF1A2 (UniProt Q05639), the NP40-soluble protein abundance (concentration: 0.1mM) turned out to be 1.05 ± 0.027 and the NP40-soluble protein abundance (concentration: 0.5mM) came to 0.992 ± 0.21.

In the case of EXOSC10 (UniProt Q01780), the NP40-soluble protein abundance (concentration: 0.1mM) worked out at 1.05 ± 0.029 and the NP40-soluble protein abundance (concentration: 0.5mM) worked out at 1.06 ± 0.056.

On to ACACA (UniProt Q13085), for which the NP40-soluble protein abundance (concentration: 0.1mM) came to 1.07 ± 0.046 and the NP40-soluble protein abundance (concentration: 0.5mM) worked out at 1.04 ± 0.029.

In the case of MLLT1 (UniProt Q03111), the NP40-soluble protein abundance (concentration: 0.1mM) was found to be 1.01 ± 0.033 and the NP40-soluble protein abundance (concentration: 0.5mM) amounted to 0.972 ± 0.038.

On to UniProt Q0VD83 and related entries, for which the NP40-soluble protein abundance stood at 1.08 ± 0.12 (concentration: 0.1mM) and 0.982 ± 0.086 (concentration: 0.5mM).

For the target RNASEL (UniProt Q05823), the NP40-soluble protein abundance by setting is: (concentration: 0.1mM) 1.1 ± 0.015; (concentration: 0.5mM) 1.16 ± 0.022.

Regarding RAB33A (UniProt Q14088), the NP40-soluble protein abundance came out at 1.12 ± 0.094 (concentration: 0.1mM) and 1.07 ± 0.079 (concentration: 0.5mM).

In the case of UniProt Q13615 and related entries, the NP40-soluble protein abundance was 1.02 ± 0.056 (concentration: 0.1mM) and 1.01 ± 0.024 (concentration: 0.5mM).

Consider EIF2B5 (UniProt Q13144), for which the NP40-soluble protein abundance was 1.05 ± 0.026 (concentration: 0.1mM) and 1 ± 0.014 (concentration: 0.5mM).

Take HNRNPA0 (UniProt Q13151): the NP40-soluble protein abundance is, setting by setting: (concentration: 0.1mM) 1.014 ± 0.0077; (concentration: 0.5mM) 1.06 ± 0.053.

Turning to UniProt Q01850 and related entries, the NP40-soluble protein abundance reads like this: (concentration: 0.1mM) 0.991 ± 0.078; (concentration: 0.5mM) 0.922 ± 0.017.

As for “UniProt Q12933-2|Q12933 and related entries”, the NP40-soluble protein abundance is, setting by setting: (concentration: 0.1mM) 1.07 ± 0.018; (concentration: 0.5mM) 1.06 ± 0.067.

For PMPCA (UniProt Q10713), the NP40-soluble protein abundance was found to be 1.06 ± 0.11 (concentration: 0.1mM) and 1.05 ± 0.062 (concentration: 0.5mM).

For UniProt Q04656 and related entries, the NP40-soluble protein abundance runs as follows: (concentration: 0.1mM) 1.08 ± 0.14; (concentration: 0.5mM) 0.944 ± 0.047.

With “UniProt Q13362-2|Q13362-3|Q13362-4|Q13362 and related entries”, the NP40-soluble protein abundance by setting is: (concentration: 0.1mM) 1.02 ± 0.044; (concentration: 0.5mM) 1.01 ± 0.062.

As to ROCK1 (UniProt Q13464), the NP40-soluble protein abundance (concentration: 0.1mM) stood at 1.01 ± 0.038 and the NP40-soluble protein abundance (concentration: 0.5mM) stood at 1.02 ± 0.073.

As for UniProt Q09666 and related entries, the NP40-soluble protein abundance is, setting by setting: (concentration: 0.1mM) 0.981 ± 0.016; (concentration: 0.5mM) 0.991 ± 0.054.

Take UniProt Q13332-2|Q13332-6: the NP40-soluble protein abundance by setting is: (concentration: 0.1mM) 1.02 ± 0.041; (concentration: 0.5mM) 1.02 ± 0.076.

As to UniProt Q13905 and related entries, the NP40-soluble protein abundance (concentration: 0.1mM) was found to be 1.02 ± 0.038 and the NP40-soluble protein abundance (concentration: 0.5mM) turned out to be 0.98 ± 0.017.

In the case of UniProt Q13033 and related entries, the NP40-soluble protein abundance by setting is: (concentration: 0.1mM) 1.02 ± 0.017; (concentration: 0.5mM) 1 ± 0.055.

As to UniProt Q12800 and related entries, the NP40-soluble protein abundance was 1.06 ± 0.12 (concentration: 0.1mM) and 1.05 ± 0.09 (concentration: 0.5mM).

In the case of UniProt Q14004 and related entries, the NP40-soluble protein abundance (concentration: 0.1mM) came to 0.992 ± 0.014 and the NP40-soluble protein abundance (concentration: 0.5mM) was determined as 1.19 ± 0.025.

PLP2 (UniProt Q04941): the NP40-soluble protein abundance was 0.898 ± 0.011 (concentration: 0.1mM) and 0.868 ± 0.032 (concentration: 0.5mM).

UniProt Q13618 and related entries: the NP40-soluble protein abundance (concentration: 0.1mM) turned out to be 1.05 ± 0.098 and the NP40-soluble protein abundance (concentration: 0.5mM) was found to be 1.04 ± 0.07.

UniProt Q12904: the NP40-soluble protein abundance was 0.961 ± 0.072 (concentration: 0.1mM) and 0.998 ± 0.092 (concentration: 0.5mM).

Regarding UniProt Q13501 and related entries, the NP40-soluble protein abundance came out at 1.02 ± 0.028 (concentration: 0.1mM) and 0.937 ± 0.012 (concentration: 0.5mM).

As to YWHAH (UniProt Q04917), the NP40-soluble protein abundance (concentration: 0.1mM) was determined as 0.914 ± 0.066 and the NP40-soluble protein abundance (concentration: 0.5mM) stood at 0.848 ± 0.075.

As to PDAP1 (UniProt Q13442), the NP40-soluble protein abundance stood at 0.852 ± 0.15 (concentration: 0.1mM) and 0.85 ± 0.18 (concentration: 0.5mM).

With UniProt Q13188 and related entries, the NP40-soluble protein abundance was found to be 0.9984 ± 0.0013 (concentration: 0.1mM) and 0.983 ± 0.038 (concentration: 0.5mM).

For NCBP1 (UniProt Q09161), the NP40-soluble protein abundance was 1.09 ± 0.062 (concentration: 0.1mM) and 1.13 ± 0.079 (concentration: 0.5mM).

On to DPYD (UniProt Q12882), for which the NP40-soluble protein abundance was 1.05 ± 0.046 (concentration: 0.1mM) and 1.03 ± 0.019 (concentration: 0.5mM).

As to TRIM28 (UniProt Q13263), the NP40-soluble protein abundance (concentration: 0.1mM) stood at 1 ± 0.03 and the NP40-soluble protein abundance (concentration: 0.5mM) was found to be 1.02 ± 0.033.

CKAP5 (UniProt Q14008): the NP40-soluble protein abundance turned out to be 0.982 ± 0.033 (concentration: 0.1mM) and 1.01 ± 0.043 (concentration: 0.5mM).

On to UniProt Q13029 and related entries, for which the NP40-soluble protein abundance reads like this: (concentration: 0.1mM) 1.06 ± 0.018; (concentration: 0.5mM) 1.15 ± 0.061.

For SORD (UniProt Q00796), the NP40-soluble protein abundance came to 0.997 ± 0.043 (concentration: 0.1mM) and 1.02 ± 0.024 (concentration: 0.5mM).

For GOLGA3 (UniProt Q08378), the NP40-soluble protein abundance stood at 0.971 ± 0.047 (concentration: 0.1mM) and 0.978 ± 0.071 (concentration: 0.5mM).

UniProt Q08623 and related entries: the NP40-soluble protein abundance by setting is: (concentration: 0.1mM) 1.01 ± 0.073; (concentration: 0.5mM) 1.02 ± 0.046.

On to UniProt Q13472 and related entries, for which the NP40-soluble protein abundance by setting is: (concentration: 0.1mM) 1.02 ± 0.061; (concentration: 0.5mM) 1.01 ± 0.071.

In the case of TSTA3 (UniProt Q13630), the NP40-soluble protein abundance (concentration: 0.1mM) was found to be 0.969 ± 0.06 and the NP40-soluble protein abundance (concentration: 0.5mM) was determined as 0.951 ± 0.028.

Regarding UniProt Q05519 and related entries, the NP40-soluble protein abundance turned out to be 1.19 ± 0.08 (concentration: 0.1mM) and 1.53 ± 0.13 (concentration: 0.5mM).

In the case of UniProt Q14005 and related entries, the NP40-soluble protein abundance came out at 0.994 ± 0.028 (concentration: 0.1mM) and 1.01 ± 0.083 (concentration: 0.5mM).

UniProt Q02083 and related entries: the NP40-soluble protein abundance was 0.963 ± 0.081 (concentration: 0.1mM) and 0.942 ± 0.094 (concentration: 0.5mM).

Consider FABP5 (UniProt Q01469), for which the NP40-soluble protein abundance by setting is: (concentration: 0.1mM) 0.973 ± 0.046; (concentration: 0.5mM) 0.991 ± 0.038.

Regarding PAK2 (UniProt Q13177), the NP40-soluble protein abundance is 0.999 ± 0.056 (concentration: 0.1mM) and 1.04 ± 0.076 (concentration: 0.5mM).

For UniProt Q02086 and related entries, the NP40-soluble protein abundance is 0.984 ± 0.046 (concentration: 0.1mM) and 1 ± 0.061 (concentration: 0.5mM).

Consider UniProt Q08209 and related entries, for which the NP40-soluble protein abundance by setting is: (concentration: 0.1mM) 1.02 ± 0.05; (concentration: 0.5mM) 1 ± 0.055.

As for UniProt Q12797 and related entries, the NP40-soluble protein abundance is 1.01 ± 0.1 (concentration: 0.1mM) and 1.04 ± 0.061 (concentration: 0.5mM).

For UniProt Q06265 and related entries, the NP40-soluble protein abundance came to 1.05 ± 0.041 (concentration: 0.1mM) and 1.03 ± 0.071 (concentration: 0.5mM).
